The target in the assay is dynamic microtubules polymerized from unlabeled single-isoform S. pombe tubulin (S. pombe) (UniProt P04688+P05219). Description: TIRF microscopy; dynamic unlabeled MTs grown from antibody-immobilized GMPCPP pig brain MT seeds; GFP-labelled EB protein in solution; PEM100 pH 6.9 plus 1 mM GTP, with additional KCl (55, 75, 85 mM) in some experiments; 4.5 or 14 uM Sp_tub, 25 uM pig brain tubulin; both purified.

Protein sequences, listed by entry. Tags and fused reporters are not part of them. Lines headed by an entry give the natural chain unless they say otherwise; changes in a name come on top.
UniProt P04688: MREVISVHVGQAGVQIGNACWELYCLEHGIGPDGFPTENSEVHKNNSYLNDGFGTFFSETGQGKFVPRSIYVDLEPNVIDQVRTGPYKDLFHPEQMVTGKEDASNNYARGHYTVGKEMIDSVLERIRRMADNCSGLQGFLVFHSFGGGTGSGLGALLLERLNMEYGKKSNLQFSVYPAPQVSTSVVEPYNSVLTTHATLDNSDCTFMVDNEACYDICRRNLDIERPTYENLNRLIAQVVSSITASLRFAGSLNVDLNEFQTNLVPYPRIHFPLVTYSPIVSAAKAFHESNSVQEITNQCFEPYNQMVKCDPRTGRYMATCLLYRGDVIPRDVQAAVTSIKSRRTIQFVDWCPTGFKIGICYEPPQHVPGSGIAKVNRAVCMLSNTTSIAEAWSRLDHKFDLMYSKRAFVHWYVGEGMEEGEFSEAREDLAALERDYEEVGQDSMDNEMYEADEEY
UniProt P05219: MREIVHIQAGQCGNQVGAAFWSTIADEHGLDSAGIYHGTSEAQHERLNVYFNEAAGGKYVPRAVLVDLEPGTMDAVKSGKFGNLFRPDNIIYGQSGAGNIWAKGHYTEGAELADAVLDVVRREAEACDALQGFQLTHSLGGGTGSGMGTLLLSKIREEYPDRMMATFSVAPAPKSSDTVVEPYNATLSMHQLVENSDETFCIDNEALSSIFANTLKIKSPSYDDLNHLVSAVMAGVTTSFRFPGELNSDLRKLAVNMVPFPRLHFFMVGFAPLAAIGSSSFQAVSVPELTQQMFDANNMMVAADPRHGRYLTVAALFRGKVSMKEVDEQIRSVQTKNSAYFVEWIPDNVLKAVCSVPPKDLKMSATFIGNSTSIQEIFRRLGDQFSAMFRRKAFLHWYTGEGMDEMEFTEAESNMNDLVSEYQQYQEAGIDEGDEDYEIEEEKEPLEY
UniProt Q15691: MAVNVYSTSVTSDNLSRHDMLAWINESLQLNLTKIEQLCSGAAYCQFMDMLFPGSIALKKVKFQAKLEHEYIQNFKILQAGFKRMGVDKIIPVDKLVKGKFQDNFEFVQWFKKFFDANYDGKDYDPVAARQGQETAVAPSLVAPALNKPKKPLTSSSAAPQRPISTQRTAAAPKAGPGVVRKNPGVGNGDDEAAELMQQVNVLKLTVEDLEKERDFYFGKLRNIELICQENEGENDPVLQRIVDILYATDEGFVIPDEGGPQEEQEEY

These are yes or no findings as the source states them, for the method shown. Some results given as binding are weak or reduced against the parent protein; the word gives no strength.

On to EB1-GFP (from UniProt Q15691 1-268), for which the binding result is “binds”.

The values are drawn from article PMC5727398, “Nucleotide– and Mal3-dependent changes in fission yeast microtubules suggest a structural plasticity view of dynamics” (Nature Communications, 2017).
